Experimental data taken from paper PMC8800533.

Assays:
[1] = target: endogenous zebrafish Bms1l (zebrafish (endogenous in embryos)); experiment: co-IP; endogenous proteins extracted from zebrafish embryos (3dpf WT; Bms1l^163 sample); Bms1l precipitated, Ttf1 and Rcl1 detected by blot
[2] = target: endogenous zebrafish Bms1l^sq163 mutant protein (zebrafish (endogenous in embryos)); experiment: as above

- binding [1]: binds
- binding [2]: binds
B1: endogenous zebrafish Rcl1 (protein, UniProt A0A8M1N1Q3 1-367)
chain: MEFEGCSGFRQRLVLSTLSGKPVKIRNIRSKDDNPGLRDFEASFIRMLDKLTNGTRIEINQTGTVLFYQPGLLYGGSVEHECNVQRSVGYYLEALLMLAPFMKTPIKAVLKGITNHPTDPSVDLLKVTAVPLMKRFGINGDGLEIKVVKRGMAPGGGGEVHFSCPVSRSMKPVQLTEAGKIKRIRGTAFSVRVSPQMANRIVDSARSILNKFIPDIYIYTDHMKGPNSGKSPGFGLVLVAETLNGVFLGAEVVSTPQGQGEMQLPEDLGRNCAKLLLEEIYRGGCVDSTNQSLALLYMTLGQQEVSKTLLGPLSPYTMDFLRHIRDFFQIMFKIETQKPSEDECKGGEKVLMTCVGAGYNNISKSIK

No constants are given. Whether binding was seen depends on the method and setting. Binding seen in cells or lysates may run through a third protein. Binding can be weak; no strength is given.
